# Laboratory results as given in the supplement of paper PMC12823440, “Inhibitors supercharge kinase turnover through native proteolytic circuits” (Nature, 2025).
# The chains behind the UniProt entries cited, without tags or fusion partners.
# UniProt P36888, whole entry: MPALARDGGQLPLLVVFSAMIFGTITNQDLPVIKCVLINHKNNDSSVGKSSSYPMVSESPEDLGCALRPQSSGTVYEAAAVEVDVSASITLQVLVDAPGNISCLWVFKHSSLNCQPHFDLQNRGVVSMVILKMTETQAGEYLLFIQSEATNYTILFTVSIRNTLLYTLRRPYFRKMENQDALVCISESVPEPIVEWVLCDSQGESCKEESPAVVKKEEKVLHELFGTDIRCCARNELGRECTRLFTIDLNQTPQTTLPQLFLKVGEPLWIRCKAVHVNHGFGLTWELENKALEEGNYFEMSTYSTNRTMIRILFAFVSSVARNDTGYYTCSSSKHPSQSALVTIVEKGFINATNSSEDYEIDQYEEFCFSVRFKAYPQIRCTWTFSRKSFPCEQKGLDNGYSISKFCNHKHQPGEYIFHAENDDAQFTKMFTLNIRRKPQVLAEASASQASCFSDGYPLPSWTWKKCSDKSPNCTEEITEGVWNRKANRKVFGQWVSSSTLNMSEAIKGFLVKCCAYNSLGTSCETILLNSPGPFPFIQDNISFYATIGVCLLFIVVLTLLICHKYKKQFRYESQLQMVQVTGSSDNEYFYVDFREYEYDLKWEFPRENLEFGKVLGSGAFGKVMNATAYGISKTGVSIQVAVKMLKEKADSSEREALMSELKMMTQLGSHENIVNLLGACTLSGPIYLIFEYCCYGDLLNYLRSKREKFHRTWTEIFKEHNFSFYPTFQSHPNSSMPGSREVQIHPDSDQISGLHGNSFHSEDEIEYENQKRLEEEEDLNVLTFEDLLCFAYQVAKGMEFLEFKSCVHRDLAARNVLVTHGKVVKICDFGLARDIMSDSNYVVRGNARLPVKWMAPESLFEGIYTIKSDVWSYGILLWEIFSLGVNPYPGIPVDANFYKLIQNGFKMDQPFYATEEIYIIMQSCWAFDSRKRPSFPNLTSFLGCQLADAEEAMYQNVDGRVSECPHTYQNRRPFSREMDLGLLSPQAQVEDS
# Structures can show the parent of a compound that is named as a salt. This is one part of the list. The calls rarely recur for the same compound in another form.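 Kinases, fused to nanoluciferase, were expressed in K562 cells; luminescence was measured every 4 h from 2 to 18 h as percent of control (DMSO = 100%, positive control = 0%). A time point is decreased if signal falls significantly (2 sigma). Hits were called by the authors by a rule that is not shown; the count of time points alone does not decide it.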
# Target: FLT3 (UniProt P36888)
# Assay: kinase-Nluc reporter destabilization hit call (1 = scored as downregulated) (binary); higher = compound decreases kinase abundance
# Settings: K562; 2-18 h
row,SMILES,kinase-Nluc reporter destabilization hit call
1,O=c1cc(-c2ccc(O[C@@H]3O[C@H](CO)[C@@H](O)[C@H](O)[C@H]3O)cc2)oc2cc(O)c([C@@H]3O[C@H](CO)[C@@H](O)[C@H](O)[C@H]3O[C@@H]3OC[C@H](O)[C@H](O)[C@H]3O)c(O)c12 [Vaccarin] (10 µM),inactive: 0
2,O=CN1CCN(c2ccc(C=C3C(=O)Nc4ccccc43)cc2)CC1 (10 µM),inactive: 0
3,COc1ccc(Cl)cc1N(CC(=O)Nc1ccc2c(c1)OCO2)S(=O)(=O)c1ccccc1 (2.5 µM),inactive: 0
4,CCc1c(C(=O)NNC(=O)[C@H](O)c2cc(F)cc(F)c2)ccc(O)c1C (10 µM),inactive: 0
5,CN(C)CCn1cc2cc(NC(=O)c3cccc(C(F)(F)F)n3)c(C(C)(C)O)cc2n1 (10 µM),inactive: 0
6,CCC[C@H](C)Oc1nc(N)c2[nH]c(=O)n(CCCCCN3CCCCC3)c2n1 (10 µM),inactive: 0
7,CCOC(=O)c1c(C)[nH]c(C=C2C(=O)Nc3ccccc32)c1C (10 µM),inactive: 0
8,Cc1ccc(NC(=O)N2CCN(c3nc(N)nc4sc(-c5cccnc5)nc34)CC2)cc1 [PI4KIII beta inhibitor 3] (10 µM),inactive: 0
9,CS[C@@]1(C(=O)Nc2ccc3[nH]nc(-c4ccc(OC(C)C)nc4)c3c2)CCN(CC(=O)N2CC=C(c3ccc(-c4ncn(C)n4)cc3)CC2)C1 (2.5 µM),inactive: 0
10,O=C(Nc1ccc(Cl)cc1)C1CN(C(=O)c2cccc(-c3ccco3)c2)CC(F)(F)C1 (stereo not drawn) (2.5 µM),inactive: 0
11,Nc1ccc(Sc2nc3ccccc3s2)c(Cl)c1 [KRAS inhibitor-9] (10 µM),inactive: 0
12,Cn1c(N2CCO[C@@H](c3ccc(F)cc3)C2)nc(-c2ccncn2)cc1=O (10 µM),inactive: 0
13,COc1ccc(CN2CCC(c3ccc4nc(C(=O)N5CCN(Cc6ccc(C(F)(F)F)cc6)CC5)[nH]c4c3)CC2)cn1 (2.5 µM),inactive: 0
14,O=C(O)c1c[nH]c2cc(Cl)c(-c3ccc(C4(O)CCC4)cc3)cc12 (10 µM),inactive: 0
15,CC(C)(Oc1ccc(Cl)cc1)C(=O)Nc1ccc(OCc2ccc(C#N)cc2)cc1 [AMPK activator 4] (10 µM),inactive: 0
16,O=C(NCc1ccn[nH]1)c1cc([C@@H]2CCNC[C@H]2COc2ccc3c(c2)OCO3)ccc1F [GRK2-IN-1 (hydrochloride)] (10 µM),inactive: 0
17,Cc1cnc(Cl)nc1-c1ccc(N(Cc2ccc(CNC(=O)C(F)F)cc2)C(=O)c2ccc(O)cc2O)cc1 (10 µM),inactive: 0
18,CC1=C(C#N)C(c2ccc3[nH]nc(C)c3c2)C(C#N)=C(C)N1 (10 µM),inactive: 0
19,CN(C[C@@H]1COCCO1)S(=O)(=O)Nc1ccc2ccc3ncc(-c4cnn(C)c4)cc3c(=O)c2c1 (2.5 µM),inactive: 0

# A run of entries taken from the entries so far, as a working copy:
row,SMILES,kinase-Nluc reporter destabilization hit call
7,CCOC(=O)c1c(C)[nH]c(C=C2C(=O)Nc3ccccc32)c1C (10 µM),inactive: 0
8,Cc1ccc(NC(=O)N2CCN(c3nc(N)nc4sc(-c5cccnc5)nc34)CC2)cc1 [PI4KIII beta inhibitor 3] (10 µM),inactive: 0
9,CS[C@@]1(C(=O)Nc2ccc3[nH]nc(-c4ccc(OC(C)C)nc4)c3c2)CCN(CC(=O)N2CC=C(c3ccc(-c4ncn(C)n4)cc3)CC2)C1 (2.5 µM),inactive: 0

# Going on with the list:

row,SMILES,kinase-Nluc reporter destabilization hit call
1,CC(=O)Nc1nc(C)c(-c2cc(C)c3c(c2)CN([C@@H](C)C2CC2)C3=O)s1 (10 µM),inactive: 0
2,O=C(Nc1ccccc1C(=O)NC1CCCCNC1=O)c1cc2ccccc2s1 (stereo not drawn) (10 µM),inactive: 0
3,CO[C@]1(C(=O)N[C@@H](C)c2ccc(-n3cc(F)cn3)nc2)CC[C@H](c2nc(C)cc(Nc3cc(C)[nH]n3)n2)CC1 [Pralsetinib] (10 µM),inactive: 0
4,O=[N+]([O-])c1ccc(-c2nc(-c3ccc(F)cc3)c(-c3ccncc3)[nH]2)cc1 (10 µM),inactive: 0
5,CC(ONC(=O)c1cc(C(F)(F)F)cc(C(F)(F)F)c1)C(=O)Nc1ccc(Cl)cc1 (stereo not drawn) (2.5 µM),inactive: 0
6,Cc1cncc2cccc(S(=O)(=O)N3CCCNC[C@@H]3C)c12 [H-1152 (dihydrochloride)] (10 µM),inactive: 0
7,Cc1nc(NC(=O)N2CCC[C@H]2C(N)=O)sc1-c1ccnc(C(C)(C)C(F)(F)F)c1 [Alpelisib] (2.5 µM),inactive: 0
8,CCCCNc1ncc2c(-c3ccc(F)cc3)nn(CC3CCC(N)CC3)c2n1 (stereo not drawn) (2.5 µM),inactive: 0
9,CS(=O)(=O)c1ccc([C@@H](CC2CCCC2)C(=O)Nc2nccs2)cc1 (10 µM),inactive: 0
10,CO/N=C1/C(c2c(O)[nH]c3cc(Cl)c(Cl)cc23)=Nc2ccccc21 (10 µM),inactive: 0
11,CNCc1ccccc1Sc1cccc2ccccc12 [IFN alpha-IFNAR-IN-1 (hydrochloride)] (10 µM),inactive: 0
12,C=CC(=O)N1CCC(c2ccc(C(N)=O)c(-c3ccc(Oc4ccccc4)cc3)n2)CC1 [Orelabrutinib] (2.5 µM),inactive: 0
13,Cc1cc2c(F)c(Oc3ncnn4cc(OC[C@@H](C)OC(=O)[C@H](C)N)c(C)c34)ccc2[nH]1 [Brivanib (alaninate)] (10 µM),inactive: 0
14,CCC(F)(F)c1cc(N2CCC(S(C)(=O)=O)CC2)nc2sc(C(N)=O)c(N)c12 (10 µM),inactive: 0
15,NC(=O)c1c(NC(=O)C2CC2)sc2c1CCCC2 (10 µM),inactive: 0
16,CC(C)=CCC[C@](C)(O[C@@H]1O[C@H](CO[C@@H]2O[C@H](CO)[C@@H](O)[C@H](O)[C@H]2O)[C@@H](O)[C@H](O)[C@H]1O)[C@H]1CC[C@]2(C)[C@@H]1[C@H](O)C[C@@H]1[C@@]3(C)CC[C@H](O[C@@H]4O[C@H](CO)[C@@H](O)[C@H](O)[C@H]4O[C@@H]4O[C@H](CO)[C@@H](O)[C@H](O)[C@H]4O)C(C)(C)[C@@H]3CC[C@]12C [Ginsenoside Rb1] (10 µM),inactive: 0
17,COc1cccc(-c2cc(=O)c3ccccc3o2)c1N (10 µM),inactive: 0
18,C[C@@H]1COC(Nc2ccc3ncnc(Nc4ccc(OCc5nccs5)c(Cl)c4)c3c2)=N1 [Varlitinib] (10 µM),active: 1
19,Cc1nc(Nc2cnn(C3CCNCC3)c2)nc2c1N(C)C(=O)c1cc3ccccc3cc1N2C (2.5 µM),inactive: 0
